Laboratory results: patent US20220125987A1, “WOUND CLOSURE DEVICES COMPRISING PROTOCATECHUIC ACID” (priority 2020, published 2022)
For at least one compound, name, drawing or mass did not settle the structure.

Test system: stripped skin wound infected with Pseudomonas aeruginosa (ATCC 27853)
Test: Histology of stripped, infected and treated mouse skin wound (Example 6)
Conditions: 48 hours

## OC[C@H]1O[C@@H](Oc2cc3c(O)cc(O)cc3[o+]c2-c2ccc(O)c(O)c2)[C@H](O)[C@@H](O)[C@@H]1O [C3G, Cyanidin 3-glucoside]
C3G 100 mM
  skin (tissue) thickness grade relative to time zero uninfected untreated wound: 2+
C3G 200 mM
  skin (tissue) thickness grade relative to time zero uninfected untreated wound: 2+
